# Experimental data published in the supplement of paper PMC12067093, “Discovery and optimisation of a covalent ligand for TRIM25 and its application to targeted protein ubiquitination” (Chemical Science, 2025).
# Amino acid sequences for entries named in this document (tags omitted). A change or cut given only in a name is not applied to a line headed by its entry.
# UniProt Q6ZSZ5: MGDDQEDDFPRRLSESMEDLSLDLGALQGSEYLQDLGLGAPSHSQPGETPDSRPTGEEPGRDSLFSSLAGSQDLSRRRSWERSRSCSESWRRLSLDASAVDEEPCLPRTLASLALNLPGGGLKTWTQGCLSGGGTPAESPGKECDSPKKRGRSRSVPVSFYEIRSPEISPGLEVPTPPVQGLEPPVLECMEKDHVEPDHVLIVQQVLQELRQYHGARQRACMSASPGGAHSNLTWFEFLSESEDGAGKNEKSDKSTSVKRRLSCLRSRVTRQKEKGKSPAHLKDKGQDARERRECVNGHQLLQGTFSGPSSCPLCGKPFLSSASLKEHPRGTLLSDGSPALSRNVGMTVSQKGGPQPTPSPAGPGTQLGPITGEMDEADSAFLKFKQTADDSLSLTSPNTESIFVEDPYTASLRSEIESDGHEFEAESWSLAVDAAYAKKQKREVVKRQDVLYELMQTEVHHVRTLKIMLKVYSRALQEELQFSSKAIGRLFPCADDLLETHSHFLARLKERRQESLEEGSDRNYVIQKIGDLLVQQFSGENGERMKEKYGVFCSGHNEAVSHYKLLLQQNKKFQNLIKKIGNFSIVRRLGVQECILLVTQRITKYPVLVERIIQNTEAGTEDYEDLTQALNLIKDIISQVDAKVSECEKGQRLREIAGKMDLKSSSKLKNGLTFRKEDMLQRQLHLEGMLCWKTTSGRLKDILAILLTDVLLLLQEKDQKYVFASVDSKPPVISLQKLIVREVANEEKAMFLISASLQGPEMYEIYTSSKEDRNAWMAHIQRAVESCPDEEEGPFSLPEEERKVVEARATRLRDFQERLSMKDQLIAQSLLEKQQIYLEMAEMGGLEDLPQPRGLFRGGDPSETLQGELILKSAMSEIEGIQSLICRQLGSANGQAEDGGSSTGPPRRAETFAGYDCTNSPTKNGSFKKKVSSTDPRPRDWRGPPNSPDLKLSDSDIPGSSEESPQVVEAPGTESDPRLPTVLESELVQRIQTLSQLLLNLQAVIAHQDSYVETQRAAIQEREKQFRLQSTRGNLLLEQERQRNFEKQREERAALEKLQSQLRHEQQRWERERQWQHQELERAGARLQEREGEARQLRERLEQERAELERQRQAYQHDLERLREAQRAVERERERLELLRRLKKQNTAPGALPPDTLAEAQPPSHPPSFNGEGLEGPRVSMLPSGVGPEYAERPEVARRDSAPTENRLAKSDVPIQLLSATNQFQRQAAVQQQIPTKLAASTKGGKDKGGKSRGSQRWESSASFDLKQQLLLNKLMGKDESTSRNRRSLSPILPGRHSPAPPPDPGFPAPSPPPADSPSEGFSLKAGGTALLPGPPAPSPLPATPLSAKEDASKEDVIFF
# UniProt O15013: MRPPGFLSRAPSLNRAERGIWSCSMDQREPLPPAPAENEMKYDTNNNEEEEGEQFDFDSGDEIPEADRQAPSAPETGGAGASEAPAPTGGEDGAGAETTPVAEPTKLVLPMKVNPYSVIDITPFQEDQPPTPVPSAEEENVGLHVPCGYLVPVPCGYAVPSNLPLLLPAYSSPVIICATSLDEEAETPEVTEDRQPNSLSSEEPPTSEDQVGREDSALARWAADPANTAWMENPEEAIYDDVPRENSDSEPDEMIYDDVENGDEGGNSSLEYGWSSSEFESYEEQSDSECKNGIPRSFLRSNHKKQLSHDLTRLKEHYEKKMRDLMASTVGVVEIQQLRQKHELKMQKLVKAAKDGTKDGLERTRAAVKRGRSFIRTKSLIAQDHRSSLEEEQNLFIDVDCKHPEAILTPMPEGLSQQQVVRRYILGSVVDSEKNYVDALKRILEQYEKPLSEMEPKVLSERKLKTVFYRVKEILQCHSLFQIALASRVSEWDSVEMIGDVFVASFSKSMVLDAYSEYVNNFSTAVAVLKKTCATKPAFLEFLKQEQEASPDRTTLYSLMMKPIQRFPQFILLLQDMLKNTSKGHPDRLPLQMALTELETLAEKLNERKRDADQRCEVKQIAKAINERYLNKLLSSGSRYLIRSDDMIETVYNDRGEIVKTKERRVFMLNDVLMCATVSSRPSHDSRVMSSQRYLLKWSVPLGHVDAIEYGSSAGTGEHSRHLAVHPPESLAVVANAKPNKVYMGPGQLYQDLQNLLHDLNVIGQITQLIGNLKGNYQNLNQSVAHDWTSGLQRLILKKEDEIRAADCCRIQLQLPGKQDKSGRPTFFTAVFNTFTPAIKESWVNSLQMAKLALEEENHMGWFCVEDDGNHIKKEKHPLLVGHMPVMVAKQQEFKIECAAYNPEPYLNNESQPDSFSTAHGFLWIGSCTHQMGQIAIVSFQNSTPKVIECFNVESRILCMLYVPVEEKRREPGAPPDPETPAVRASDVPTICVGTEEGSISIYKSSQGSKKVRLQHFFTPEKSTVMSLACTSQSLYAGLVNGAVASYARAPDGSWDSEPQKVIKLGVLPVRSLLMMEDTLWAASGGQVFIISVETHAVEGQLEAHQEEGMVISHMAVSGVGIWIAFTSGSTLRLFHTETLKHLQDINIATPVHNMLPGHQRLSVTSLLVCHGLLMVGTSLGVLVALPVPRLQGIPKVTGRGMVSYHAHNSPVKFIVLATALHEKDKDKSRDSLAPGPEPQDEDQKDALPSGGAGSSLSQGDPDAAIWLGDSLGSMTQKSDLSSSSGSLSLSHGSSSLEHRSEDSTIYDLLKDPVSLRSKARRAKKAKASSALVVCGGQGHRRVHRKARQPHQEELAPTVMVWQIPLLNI
# UniProt Q8NFD5, whole entry, looked up: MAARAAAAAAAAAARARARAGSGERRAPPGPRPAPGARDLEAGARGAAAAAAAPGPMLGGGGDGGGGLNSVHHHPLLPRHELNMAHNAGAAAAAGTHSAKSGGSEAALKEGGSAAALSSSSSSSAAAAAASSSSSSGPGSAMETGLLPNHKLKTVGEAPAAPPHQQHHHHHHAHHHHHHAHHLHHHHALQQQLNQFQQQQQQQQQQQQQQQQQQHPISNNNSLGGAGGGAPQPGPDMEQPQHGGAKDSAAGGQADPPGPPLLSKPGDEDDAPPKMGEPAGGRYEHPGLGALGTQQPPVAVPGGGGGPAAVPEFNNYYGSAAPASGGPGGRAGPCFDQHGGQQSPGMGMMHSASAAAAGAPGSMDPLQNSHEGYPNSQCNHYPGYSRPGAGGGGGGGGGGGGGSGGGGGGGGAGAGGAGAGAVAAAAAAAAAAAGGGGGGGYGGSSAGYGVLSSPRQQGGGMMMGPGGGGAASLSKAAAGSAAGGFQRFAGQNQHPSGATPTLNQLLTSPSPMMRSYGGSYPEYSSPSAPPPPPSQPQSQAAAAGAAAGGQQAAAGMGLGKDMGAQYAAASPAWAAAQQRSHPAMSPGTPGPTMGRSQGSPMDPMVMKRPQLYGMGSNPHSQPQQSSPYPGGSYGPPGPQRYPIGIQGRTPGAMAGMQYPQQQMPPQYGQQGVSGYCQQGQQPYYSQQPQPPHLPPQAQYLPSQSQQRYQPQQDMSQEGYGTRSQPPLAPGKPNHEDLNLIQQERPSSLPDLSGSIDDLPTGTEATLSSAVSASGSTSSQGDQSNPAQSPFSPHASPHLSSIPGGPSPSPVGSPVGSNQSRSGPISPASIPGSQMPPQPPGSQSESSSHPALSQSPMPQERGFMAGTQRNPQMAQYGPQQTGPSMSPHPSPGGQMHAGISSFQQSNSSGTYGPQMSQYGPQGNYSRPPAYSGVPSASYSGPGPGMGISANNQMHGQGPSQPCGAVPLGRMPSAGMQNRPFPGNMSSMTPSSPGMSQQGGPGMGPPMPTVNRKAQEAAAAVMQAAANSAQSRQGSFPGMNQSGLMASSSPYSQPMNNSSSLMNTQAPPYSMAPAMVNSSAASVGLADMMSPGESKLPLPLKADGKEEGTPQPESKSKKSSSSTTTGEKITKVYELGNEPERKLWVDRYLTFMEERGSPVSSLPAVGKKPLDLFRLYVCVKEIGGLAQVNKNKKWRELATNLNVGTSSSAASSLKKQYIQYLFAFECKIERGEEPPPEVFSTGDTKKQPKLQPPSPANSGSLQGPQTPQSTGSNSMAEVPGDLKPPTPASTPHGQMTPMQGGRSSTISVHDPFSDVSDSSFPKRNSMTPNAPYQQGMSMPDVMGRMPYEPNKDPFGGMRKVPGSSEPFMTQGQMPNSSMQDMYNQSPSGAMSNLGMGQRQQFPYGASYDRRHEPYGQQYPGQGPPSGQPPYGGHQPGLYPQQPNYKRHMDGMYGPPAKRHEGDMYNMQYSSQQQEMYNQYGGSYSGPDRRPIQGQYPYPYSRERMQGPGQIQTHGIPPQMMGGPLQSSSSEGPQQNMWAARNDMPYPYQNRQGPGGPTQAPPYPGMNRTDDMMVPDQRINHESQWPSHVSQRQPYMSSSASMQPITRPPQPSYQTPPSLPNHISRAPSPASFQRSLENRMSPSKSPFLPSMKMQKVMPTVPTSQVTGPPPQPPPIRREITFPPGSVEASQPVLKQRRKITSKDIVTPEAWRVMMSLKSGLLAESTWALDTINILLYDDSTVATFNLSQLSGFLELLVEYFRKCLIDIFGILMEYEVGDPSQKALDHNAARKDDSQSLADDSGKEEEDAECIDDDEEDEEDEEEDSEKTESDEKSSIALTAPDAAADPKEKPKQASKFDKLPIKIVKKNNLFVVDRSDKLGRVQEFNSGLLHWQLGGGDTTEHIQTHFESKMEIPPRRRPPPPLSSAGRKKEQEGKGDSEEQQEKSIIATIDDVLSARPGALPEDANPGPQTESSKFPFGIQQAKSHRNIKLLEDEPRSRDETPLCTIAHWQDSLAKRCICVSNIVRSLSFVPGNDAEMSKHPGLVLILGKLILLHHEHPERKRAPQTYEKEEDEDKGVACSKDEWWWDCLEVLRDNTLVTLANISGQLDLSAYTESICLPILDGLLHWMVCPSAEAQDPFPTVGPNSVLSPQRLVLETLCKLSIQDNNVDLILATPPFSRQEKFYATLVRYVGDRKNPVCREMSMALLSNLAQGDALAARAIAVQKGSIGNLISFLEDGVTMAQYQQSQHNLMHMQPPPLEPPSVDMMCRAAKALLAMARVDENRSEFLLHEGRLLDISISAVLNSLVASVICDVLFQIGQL
# UniProt Q92974: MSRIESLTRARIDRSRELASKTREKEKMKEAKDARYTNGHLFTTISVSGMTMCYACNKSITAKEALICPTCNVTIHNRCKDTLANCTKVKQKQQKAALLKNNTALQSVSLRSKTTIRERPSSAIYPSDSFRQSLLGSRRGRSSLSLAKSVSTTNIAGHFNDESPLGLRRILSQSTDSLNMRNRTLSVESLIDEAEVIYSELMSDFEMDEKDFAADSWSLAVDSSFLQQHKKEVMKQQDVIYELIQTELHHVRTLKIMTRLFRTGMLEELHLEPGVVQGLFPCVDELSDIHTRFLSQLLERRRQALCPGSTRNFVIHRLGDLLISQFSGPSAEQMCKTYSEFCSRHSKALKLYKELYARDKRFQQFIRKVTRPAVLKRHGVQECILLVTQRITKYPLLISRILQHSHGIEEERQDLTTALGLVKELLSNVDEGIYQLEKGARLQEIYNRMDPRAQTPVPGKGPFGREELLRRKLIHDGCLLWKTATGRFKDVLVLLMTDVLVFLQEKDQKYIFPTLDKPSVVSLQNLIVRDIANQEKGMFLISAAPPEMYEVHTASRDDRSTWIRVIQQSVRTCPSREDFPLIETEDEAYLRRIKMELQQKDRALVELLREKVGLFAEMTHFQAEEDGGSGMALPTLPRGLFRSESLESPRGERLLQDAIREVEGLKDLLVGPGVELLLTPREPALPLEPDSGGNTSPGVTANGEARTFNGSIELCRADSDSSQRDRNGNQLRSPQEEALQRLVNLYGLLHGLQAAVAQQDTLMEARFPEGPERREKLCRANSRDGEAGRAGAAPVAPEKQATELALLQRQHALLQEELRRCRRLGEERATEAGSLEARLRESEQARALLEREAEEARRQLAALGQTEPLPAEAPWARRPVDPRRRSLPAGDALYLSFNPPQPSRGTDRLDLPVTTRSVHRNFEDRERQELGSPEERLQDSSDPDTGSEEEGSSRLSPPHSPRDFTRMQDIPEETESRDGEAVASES
# UniProt Q13795: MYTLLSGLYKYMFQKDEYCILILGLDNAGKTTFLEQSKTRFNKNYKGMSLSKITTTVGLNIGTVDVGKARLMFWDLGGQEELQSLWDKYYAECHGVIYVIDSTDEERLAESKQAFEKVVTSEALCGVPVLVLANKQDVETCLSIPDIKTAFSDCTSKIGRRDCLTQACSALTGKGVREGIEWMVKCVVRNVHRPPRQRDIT
# The list shows a part of the results.
# Compound: CC1Cc2ccccc2N1C(=O)C1CCCN(C1)C(=O)CCl (mixture of isomers) [TRIM25 ligand 11 (diastereomer mixture)]
# Experiment: probe-labelled cysteine peptide fold change vs DMSO (competition) (log2 fold change); higher = less target engagement (more negative = stronger competition)
# Conditions: THP-1, incubation time: 4 h
# 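Note: competitive chemoproteomic profiling in live THP-1 cells with an iodoacetamide desthiobiotin (IA-DTB) probe, comparing probe-labelled peptide intensities in compound-treated cells against DMSO-treated controls.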
Target,probe-labelled cysteine peptide fold change (10 µM),probe-labelled cysteine peptide fold change (50 µM)
ARHGEF18_Q6ZSZ5_105_RLSLDASAVDEEPCLPR (UniProt Q6ZSZ5),-0.123,0.116
ARHGEF10_O15013_959_ILCMLYVPVEEK (UniProt O15013),0.141,0.25
ARID1B_Q8NFD5_2074_LVLETLCK (UniProt Q8NFD5),-0.204,0.341
ARHGEF2_Q92974_68+71_EALICPTCNVTIHNR (UniProt Q92974),0.202,-0.0187
ARFRP1_Q13795_19_DEYCILILGLDNAGK (UniProt Q13795),-0.000377,0.223
ARHGAP45_Q92619_528_SATISYYQMMHMQTAPLPVHFQMLCESSK (UniProt Q92619),-0.132,-0.236
ARIH1_Q9Y4X5_357_DGGCNHMVCR (UniProt Q9Y4X5),-0.0941,-0.0997
ARHGAP4_P98171_855_CLVPASPEQHVEVDK (UniProt P98171),0.00446,-0.299
ARHGAP17_Q68EM7_53_LVACFQGQHGTDAER (UniProt Q68EM7),0.242,0.0625
APOBEC3G_Q9HC16_160_IMNYDEFQHCWSK (UniProt Q9HC16),0.0416,0.0628
ARHGAP27_Q6ZUM4_703_DQVFGCALAALCER (UniProt Q6ZUM4),-0.0677,0.0541
ARHGAP4_P98171_840_QVVGAGLQTAGESGSSPEGLLASELVHRPEPCTSPEAMGPSGHR (UniProt P98171),0.00394,-0.325
ARHGEF10_O15013_808+809_AADCCR (UniProt O15013),0.0459,0.0127
ARAP1_Q96P48_1176_VAGTASGTQHAGDFICTVYLEEK (UniProt Q96P48),0.102,0.0408

# 2 records drawn at random from the list so far, as already listed:
Target,probe-labelled cysteine peptide fold change (10 µM),probe-labelled cysteine peptide fold change (50 µM)
ARHGAP4_P98171_840_QVVGAGLQTAGESGSSPEGLLASELVHRPEPCTSPEAMGPSGHR (UniProt P98171),0.00394,-0.325
ARID1B_Q8NFD5_2074_LVLETLCK (UniProt Q8NFD5),-0.204,0.341
